The target of this assay is Recombinant HSP27 (heat shock protein 27), biotinylated (UniProt P04792). Description: BLI; Octet Red; biotinylated HSP27 immobilised at 10 ug/ml on streptavidin biosensors; analytes at 125 nM in PBS; association 600 s, dissociation 600 s; 26 °C; both purified.

By UniProt entry, the sequences of proteins in these tests, tags left out.
UniProt P04792: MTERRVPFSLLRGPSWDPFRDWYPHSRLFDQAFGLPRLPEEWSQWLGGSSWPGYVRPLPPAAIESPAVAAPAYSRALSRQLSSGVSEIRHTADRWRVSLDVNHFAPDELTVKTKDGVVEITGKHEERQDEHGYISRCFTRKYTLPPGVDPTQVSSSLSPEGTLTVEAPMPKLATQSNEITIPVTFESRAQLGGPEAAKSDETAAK

Results are given in words; binding and its absence hold for the method and conditions named. Some binding calls cover weakened binding; strength is not graded here.

B1: Crystallin alpha B (protein, UniProt P02511 1-175)
chain: MDIAIHHPWIRRPFFPFHSPSRLFDQFFGEHLLESDLFPTSTSLSPFYLRPPSFLRAPSWFDTGLSEMRLEKDRFSVNLDVKHFSPEELKVKVLGDVIEVHGKHEERQDEHGFISREFHRKYRIPADVDPLTITSSLSSDGVLTVNGPRKQVSGPERTIPITREEKPAVTAAPKK
As for B1, the binding entry is recorded as “binds”.

The record behind these values is PMC5897330.
